Reference: the supplement of paper PMC7125110
± gives the standard error. The uncertainty is large for many entries.

B1: glmS ribozyme (parent)
chain: AUAAAAGCGCCAGAACUACAGAAAUGUAGUUGACGAGGAGGAGGUUUAUCGAAUUUUCGGCGGAUGCCUCCAAA

Variants of: B1
Assay: self-cleavage kobs at 2500 uM GlcN6P; higher = faster cleavage; RNA array
Conditions: with glucosamine-6-phosphate
How it was run: (§1)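 kobs was derived by fitting per-tile medians to one- or two-exponential decays after normalising signals to baseline and to non-cleaving reference variants. Those signals came from barcoded ribozyme variants transcribed in situ by E. coli RNA polymerase on sequenced MiSeq chips, followed through a hybridised Cy3 probe at 37 °C and imaged over ~14 h. Glucosamine-6-phosphate (40 μM to 10 mM) in HEPES/KCl/Mg(OAc)2 buffer was flowed in. Weighted Michaelis–Menten fits across concentrations then gave kcat and KM.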

| Variant | self-cleavage kobs at 2500 uM GlcN6P [s⁻¹] |
| --- | --- |
| C16A C67G C68G C70U | 3.55e-05 ± 2.2e-05 |
| A12C A14G U57G C70G | 0.00268 ± 0.0017 |
| G13U G66U | 1.47e-05 ± 9.2e-06 |
| G32C A39U | 1.48e-05 ± 1.1e-05 |
| A15U A42U U54A | 3.02e-05 ± 2.3e-05 |
| A15G A42G | 0.0672 ± 0.06 |
| G13A A14G G29C C50G | 6.04e-05 ± 3.3e-05 |
| A12G G32A A39G | 5.49e-05 ± 2.8e-05 |
| A12C A36G G60C C68G C70A | 6.86e-05 ± 4e-05 |
| C50A C58U C67G | 3.87e-05 ± 2.1e-05 |
| A12U G43U U46A | 2.58e-05 ± 2.2e-05 |
| G9A A42C A53C | 0.00162 ± 0.0015 |
| A12U U49A | 3.07e-05 ± 1.9e-05 |
| C11U U49G | 1.44e-05 ± 1.3e-05 |
| G13U U31A G38U C58A C67U | 4.14e-05 ± 2.1e-05 |
| C16U A39G U55C | 0.027 ± 0.015 |
| A15U U57G | 3.29e-05 ± 2.4e-05 |

Variants of: B1
Assay: self-cleavage kobs at 10000 uM GlcN6P; higher = faster cleavage; RNA array
Conditions: with glucosamine-6-phosphate
How it was run: as §1

| Variant | self-cleavage kobs at 10000 uM GlcN6P [s⁻¹] |
| --- | --- |
| A15G A42G | 0.0893 ± 0.049 |
| A12U U49A | 3.53e-05 ± 2.4e-05 |
| C11U U49G | 1.23e-05 ± 1e-05 |

Variants of: B1
Assay: self-cleavage kobs at 640 uM GlcN6P; higher = faster cleavage; RNA array
Conditions: with glucosamine-6-phosphate
How it was run: as §1

| Variant | self-cleavage kobs at 640 uM GlcN6P [s⁻¹] |
| --- | --- |
| C50G U56G | 3.98e-05 ± 2.2e-05 |
| G43U C67U C68U | 1.76e-05 ± 1.4e-05 |
| A52C U65A C67G | 2.34e-05 ± 2.2e-05 |
| G29U G38U G66U C68A U69G | 0.000256 ± 0.00014 |
| G26U G32U U55G | 1.92e-05 ± 1.7e-05 |
| C34U G51A C68A | 0.000265 ± 0.00015 |
| U49C C68G | 0.000547 ± 0.00048 |
| G29C G32U | 4.74e-05 ± 3.9e-05 |
| A53G C58A C71A | 1.48e-05 ± 1.4e-05 |
| C50A A53G | 2.44e-05 ± 1.7e-05 |
| A36U G38U A39U | 2.06e-05 ± 2e-05 |
| C58A G63A C71U | 3.53e-05 ± 2.3e-05 |
| A39C U56C U65G | 1.95e-05 ± 1.7e-05 |
| U30G U31A | 0.00548 ± 0.0037 |
| A36G U54G U57G C70A | 2.77e-05 ± 2.7e-05 |
| U49A U54G C70G | 5.57e-05 ± 3.5e-05 |

Variants of: B1
Assay: self-cleavage kobs at 160 uM GlcN6P; higher = faster cleavage; RNA array
Conditions: with glucosamine-6-phosphate
How it was run: as §1

| Variant | self-cleavage kobs at 160 uM GlcN6P [s⁻¹] |
| --- | --- |
| A6U C71U | 2.04e-05 ± 1.2e-05 |
| U31G A52G | 2.72e-05 ± 1.7e-05 |
| U30A U69G C71A | 4.06e-05 ± 2.3e-05 |
| G37A C67A | 2.13e-05 ± 1.6e-05 |
| U31C U65G | 2.53e-05 ± 1.9e-05 |
| G37C | < 1e-05 |
| C50A C58U C67G | 3.86e-05 ± 1.9e-05 |
| A14U U45C | 3.26e-05 ± 1.7e-05 |
| A36U G38U A39U | 2.33e-05 ± 2.1e-05 |

For reference, some entries already given.

| Variant | self-cleavage kobs at 160 uM GlcN6P [s⁻¹] |
| --- | --- |
| U31C U65G | 2.53e-05 ± 1.9e-05 |
| G37C | < 1e-05 |
| C50A C58U C67G | 3.86e-05 ± 1.9e-05 |
